Binding data for one substance are collected here from article PMC12032420.

Sequences of proteins named here, by UniProt entry; tags and fusion partners are left off. A change or cut given only in a name is not applied to a line headed by its entry.
UniProt Q09472: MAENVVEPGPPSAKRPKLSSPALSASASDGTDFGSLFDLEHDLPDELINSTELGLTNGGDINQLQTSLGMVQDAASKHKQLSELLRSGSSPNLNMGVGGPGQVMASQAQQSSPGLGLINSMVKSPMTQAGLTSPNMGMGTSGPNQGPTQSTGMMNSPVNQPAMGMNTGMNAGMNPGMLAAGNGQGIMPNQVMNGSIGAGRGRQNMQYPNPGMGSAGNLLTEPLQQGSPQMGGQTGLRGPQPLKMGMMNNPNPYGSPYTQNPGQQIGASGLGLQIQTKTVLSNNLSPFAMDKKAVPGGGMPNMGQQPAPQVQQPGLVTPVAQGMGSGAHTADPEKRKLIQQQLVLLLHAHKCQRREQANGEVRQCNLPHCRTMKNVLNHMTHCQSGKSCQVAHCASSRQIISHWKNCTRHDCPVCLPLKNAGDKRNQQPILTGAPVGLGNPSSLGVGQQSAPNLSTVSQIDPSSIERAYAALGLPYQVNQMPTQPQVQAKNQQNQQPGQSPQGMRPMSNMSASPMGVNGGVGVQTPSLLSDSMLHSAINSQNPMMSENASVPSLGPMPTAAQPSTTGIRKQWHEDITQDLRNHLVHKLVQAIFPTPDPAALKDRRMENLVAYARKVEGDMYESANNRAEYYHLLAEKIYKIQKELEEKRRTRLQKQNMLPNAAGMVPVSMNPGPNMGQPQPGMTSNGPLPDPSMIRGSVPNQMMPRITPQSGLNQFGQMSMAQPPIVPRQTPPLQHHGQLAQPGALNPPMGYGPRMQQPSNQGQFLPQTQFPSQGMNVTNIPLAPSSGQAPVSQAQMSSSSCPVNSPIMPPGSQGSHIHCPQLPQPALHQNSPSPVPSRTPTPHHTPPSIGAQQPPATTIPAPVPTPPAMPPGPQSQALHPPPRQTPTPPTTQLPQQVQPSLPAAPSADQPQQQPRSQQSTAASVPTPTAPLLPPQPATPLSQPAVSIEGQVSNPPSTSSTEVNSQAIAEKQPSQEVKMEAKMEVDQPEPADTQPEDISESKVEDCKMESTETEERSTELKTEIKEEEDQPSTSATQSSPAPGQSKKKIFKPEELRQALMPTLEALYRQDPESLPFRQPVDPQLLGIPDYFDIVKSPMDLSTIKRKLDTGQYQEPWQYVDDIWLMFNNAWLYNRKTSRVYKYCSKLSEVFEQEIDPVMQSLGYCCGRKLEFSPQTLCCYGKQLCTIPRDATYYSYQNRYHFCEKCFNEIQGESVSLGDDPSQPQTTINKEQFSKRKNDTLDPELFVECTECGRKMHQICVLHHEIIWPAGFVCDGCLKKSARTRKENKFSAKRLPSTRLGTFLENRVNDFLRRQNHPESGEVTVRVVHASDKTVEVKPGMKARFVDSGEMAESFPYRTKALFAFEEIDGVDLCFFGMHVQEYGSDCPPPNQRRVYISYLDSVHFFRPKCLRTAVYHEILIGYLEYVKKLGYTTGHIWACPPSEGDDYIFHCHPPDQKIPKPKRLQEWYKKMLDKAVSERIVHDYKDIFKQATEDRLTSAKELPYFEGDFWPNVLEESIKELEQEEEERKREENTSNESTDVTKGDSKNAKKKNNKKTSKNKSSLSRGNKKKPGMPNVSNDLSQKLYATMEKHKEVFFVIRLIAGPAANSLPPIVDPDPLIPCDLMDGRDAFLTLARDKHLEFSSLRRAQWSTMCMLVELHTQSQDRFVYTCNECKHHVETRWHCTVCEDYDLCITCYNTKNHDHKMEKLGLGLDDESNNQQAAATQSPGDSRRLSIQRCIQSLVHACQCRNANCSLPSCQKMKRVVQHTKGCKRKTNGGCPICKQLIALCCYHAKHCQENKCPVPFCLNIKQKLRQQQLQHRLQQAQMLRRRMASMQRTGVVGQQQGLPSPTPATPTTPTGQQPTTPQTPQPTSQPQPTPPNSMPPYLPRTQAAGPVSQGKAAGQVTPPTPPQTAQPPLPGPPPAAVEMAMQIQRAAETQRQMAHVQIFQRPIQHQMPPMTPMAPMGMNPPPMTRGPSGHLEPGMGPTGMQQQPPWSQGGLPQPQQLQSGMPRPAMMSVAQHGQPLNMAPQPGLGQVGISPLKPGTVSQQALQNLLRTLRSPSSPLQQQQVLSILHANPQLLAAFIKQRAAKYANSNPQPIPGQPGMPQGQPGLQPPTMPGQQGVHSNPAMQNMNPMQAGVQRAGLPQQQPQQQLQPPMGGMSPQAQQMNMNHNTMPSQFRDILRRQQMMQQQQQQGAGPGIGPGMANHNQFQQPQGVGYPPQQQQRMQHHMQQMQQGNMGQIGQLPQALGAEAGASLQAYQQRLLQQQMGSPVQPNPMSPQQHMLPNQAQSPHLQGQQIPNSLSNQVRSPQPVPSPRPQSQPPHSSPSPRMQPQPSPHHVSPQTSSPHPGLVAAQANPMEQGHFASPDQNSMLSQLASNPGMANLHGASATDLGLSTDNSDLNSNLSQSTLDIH
UniProt P01106: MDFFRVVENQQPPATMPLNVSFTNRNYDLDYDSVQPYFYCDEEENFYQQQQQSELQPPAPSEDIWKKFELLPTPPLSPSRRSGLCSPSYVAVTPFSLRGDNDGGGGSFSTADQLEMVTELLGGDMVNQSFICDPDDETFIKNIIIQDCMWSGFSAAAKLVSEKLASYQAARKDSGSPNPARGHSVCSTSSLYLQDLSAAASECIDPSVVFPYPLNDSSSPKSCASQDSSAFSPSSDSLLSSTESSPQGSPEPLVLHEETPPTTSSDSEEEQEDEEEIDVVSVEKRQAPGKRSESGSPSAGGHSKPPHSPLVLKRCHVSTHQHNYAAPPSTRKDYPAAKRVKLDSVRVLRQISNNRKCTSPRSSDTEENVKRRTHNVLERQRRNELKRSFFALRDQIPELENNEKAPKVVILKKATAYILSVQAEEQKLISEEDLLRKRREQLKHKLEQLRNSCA

No constants are given. Whether binding was seen depends on the method and setting. Binding seen in cells or lysates may run through a third protein. Some results given as binding are weak or reduced against the parent protein; the word gives no strength.

The target of this assay is E1A binding protein P300 (human (endogenous in MV-4-11 and MOLM-13)) (UniProt Q09472). In words: co-IP; lysates of MV-4-11 and MOLM-13 cells (NP40 buffer: 50 mM Tris-HCl pH 7.4, 150 mM NaCl, 1% Nonidet P40, 5 mM EDTA), treated with or without 1 nM quizartinib for 12 h; immunoprecipitated with anti-p300 or control IgG overnight at 4 °C, protein A/G agarose; c-Myc detected by Western blotting. On the technique in general: Immunoblotting shows a protein as a band on a membrane.

For c-Myc (from UniProt P01106 1-454), the binding entry is “binds”.
